No constants are given. Whether binding was seen depends on the method and setting. Binding seen in cells or lysates may run through a third protein.
Columns and labels:
[1] = molecular target: TRAIL-R1 (human (endogenous in HCT116 and SW480)) (UniProt O00220); experiment: co-IP; cells stimulated or not with 5 μg/ml His-TRAIL, lysed in NP40-containing buffer, precleared and immunoprecipitated with 5 μg of anti-TRAIL-R1, anti-TRAIL-R2 or anti-GAPDH antibody; western blot
[2] = molecular target: TRAIL-R2 (human (endogenous in HCT116 and SW480)) (UniProt O14763); experiment: as above

By UniProt entry, the sequences of proteins in these tests, tags left out. Residues count along the entry.
UniProt O00220, residues 24-468: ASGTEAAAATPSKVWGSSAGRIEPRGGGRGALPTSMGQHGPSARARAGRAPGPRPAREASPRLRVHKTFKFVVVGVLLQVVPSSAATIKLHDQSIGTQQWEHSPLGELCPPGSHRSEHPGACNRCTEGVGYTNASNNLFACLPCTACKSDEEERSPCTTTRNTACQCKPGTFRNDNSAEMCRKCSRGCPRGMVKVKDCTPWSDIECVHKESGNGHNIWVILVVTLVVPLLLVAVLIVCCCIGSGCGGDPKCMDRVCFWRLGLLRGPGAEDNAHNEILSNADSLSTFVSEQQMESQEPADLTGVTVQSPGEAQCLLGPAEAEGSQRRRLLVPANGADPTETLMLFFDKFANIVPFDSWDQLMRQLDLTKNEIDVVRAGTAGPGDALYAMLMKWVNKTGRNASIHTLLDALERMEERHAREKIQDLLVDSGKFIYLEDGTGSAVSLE
UniProt O14763, residues 56-440: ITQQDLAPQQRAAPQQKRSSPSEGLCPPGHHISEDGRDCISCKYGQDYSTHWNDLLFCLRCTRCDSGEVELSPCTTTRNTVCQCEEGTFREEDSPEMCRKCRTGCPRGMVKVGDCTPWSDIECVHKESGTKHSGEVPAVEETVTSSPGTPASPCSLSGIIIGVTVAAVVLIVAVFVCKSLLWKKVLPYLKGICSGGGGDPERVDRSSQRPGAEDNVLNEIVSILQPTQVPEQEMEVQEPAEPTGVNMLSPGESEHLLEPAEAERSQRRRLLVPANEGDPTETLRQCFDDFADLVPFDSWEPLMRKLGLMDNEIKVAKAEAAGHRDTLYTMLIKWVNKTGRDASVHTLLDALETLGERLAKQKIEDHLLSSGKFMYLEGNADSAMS
UniProt P15311: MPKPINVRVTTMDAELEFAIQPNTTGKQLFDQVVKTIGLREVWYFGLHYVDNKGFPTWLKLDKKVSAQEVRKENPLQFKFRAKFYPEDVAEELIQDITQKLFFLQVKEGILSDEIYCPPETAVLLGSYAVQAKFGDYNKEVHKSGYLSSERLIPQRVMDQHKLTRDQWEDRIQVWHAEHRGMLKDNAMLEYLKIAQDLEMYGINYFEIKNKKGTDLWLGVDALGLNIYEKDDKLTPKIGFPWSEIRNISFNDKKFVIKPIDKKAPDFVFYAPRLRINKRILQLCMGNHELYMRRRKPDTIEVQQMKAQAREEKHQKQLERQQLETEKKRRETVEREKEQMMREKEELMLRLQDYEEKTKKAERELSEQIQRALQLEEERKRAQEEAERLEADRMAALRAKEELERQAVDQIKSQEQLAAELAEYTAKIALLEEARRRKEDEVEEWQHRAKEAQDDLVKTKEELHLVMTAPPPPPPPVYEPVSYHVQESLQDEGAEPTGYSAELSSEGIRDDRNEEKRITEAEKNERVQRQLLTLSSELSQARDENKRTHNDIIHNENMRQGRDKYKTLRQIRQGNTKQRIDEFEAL

- binding [1]: no binding
- binding [2]: no binding
Substance: ezrin (from UniProt P15311 1-586)
